These are yes or no findings as the source states them, for the method shown. Some results given as binding are weak or reduced against the parent protein; the word gives no strength.
Columns and labels:
[1] = target: monkey cMET (Cynomolgus Macaque) (Cynomolgus macaque (Macaca fascicularis)); test: ELISA, species cross-reactivity (NHP)
[2] = target: monkey cMET (Cynomolgus Macaque) (Cynomolgus macaque (Macaca fascicularis)); test: ELISA, antibody titrated on cMet of the named species, OD 450 nm
[3] = target: T1, human cMET (human, UniProt P08581 25-932, limits assumed); test: as above
T1 construct: also called hMET

Amino acid sequences for entries named in this document (tags omitted). A change or cut given only in a name is not applied to a line headed by its entry.
UniProt P08581: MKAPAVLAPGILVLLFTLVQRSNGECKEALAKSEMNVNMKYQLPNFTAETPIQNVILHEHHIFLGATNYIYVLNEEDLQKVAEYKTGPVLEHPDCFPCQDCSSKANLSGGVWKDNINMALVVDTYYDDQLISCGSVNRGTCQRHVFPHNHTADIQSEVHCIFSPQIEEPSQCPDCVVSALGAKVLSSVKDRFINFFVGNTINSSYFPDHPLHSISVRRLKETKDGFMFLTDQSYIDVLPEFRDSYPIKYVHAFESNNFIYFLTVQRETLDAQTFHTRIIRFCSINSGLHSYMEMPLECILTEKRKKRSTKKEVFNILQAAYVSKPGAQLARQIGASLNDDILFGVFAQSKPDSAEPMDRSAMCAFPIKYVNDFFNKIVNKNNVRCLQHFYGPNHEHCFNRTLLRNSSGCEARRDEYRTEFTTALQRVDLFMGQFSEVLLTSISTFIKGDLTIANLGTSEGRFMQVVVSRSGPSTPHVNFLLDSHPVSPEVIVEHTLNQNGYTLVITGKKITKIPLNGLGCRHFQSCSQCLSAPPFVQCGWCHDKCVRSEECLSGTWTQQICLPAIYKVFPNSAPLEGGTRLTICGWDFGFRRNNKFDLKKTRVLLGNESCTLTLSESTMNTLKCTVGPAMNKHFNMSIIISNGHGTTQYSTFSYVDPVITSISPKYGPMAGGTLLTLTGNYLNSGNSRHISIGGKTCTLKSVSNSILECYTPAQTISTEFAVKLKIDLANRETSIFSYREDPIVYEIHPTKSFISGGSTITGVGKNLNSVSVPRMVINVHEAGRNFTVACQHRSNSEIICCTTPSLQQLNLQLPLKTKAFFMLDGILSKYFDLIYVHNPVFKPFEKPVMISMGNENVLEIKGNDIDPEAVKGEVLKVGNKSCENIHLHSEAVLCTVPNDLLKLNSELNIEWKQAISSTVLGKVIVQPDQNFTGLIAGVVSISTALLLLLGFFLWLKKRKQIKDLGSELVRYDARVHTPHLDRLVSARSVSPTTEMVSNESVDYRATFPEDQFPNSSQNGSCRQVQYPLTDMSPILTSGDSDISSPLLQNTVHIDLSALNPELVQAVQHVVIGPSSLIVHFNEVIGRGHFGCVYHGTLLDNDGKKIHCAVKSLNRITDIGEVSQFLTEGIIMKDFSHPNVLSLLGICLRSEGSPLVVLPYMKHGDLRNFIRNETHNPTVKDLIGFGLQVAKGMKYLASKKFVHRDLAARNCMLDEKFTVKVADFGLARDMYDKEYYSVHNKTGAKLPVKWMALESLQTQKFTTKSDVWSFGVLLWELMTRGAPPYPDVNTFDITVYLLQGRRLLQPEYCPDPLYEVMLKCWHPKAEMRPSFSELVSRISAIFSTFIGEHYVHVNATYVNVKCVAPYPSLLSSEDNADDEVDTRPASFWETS

binding [1]	binding [2]	binding [3]	Binder
binds	binds	–	F6B1P3D12 (antibody, V domains shown, Mouse monoclonal antibody from a hybridoma; also called Mouse P3D12; P3D12(mouse)) VH: QVQLQQSGAELAKPGASVKMSCRASGYTFTSYWMHWVKQRPGQGLDWIGYIKPSTDNTEYNQKFKDKATLTADKSSSTAYMQLSSLTSEDSAVYYCARSYGNYPLMDYWGQGTSVTVSS VL: QIVLTQSPAIMSASPGEKVTLTCSASSSVTSNYLYWYQQKPGSSPKLWIYSTSNLASGVPARFSGSGSGTSYSLTISSMEAEDAASYFCHQWSSYPPTFGSGTKLEIKR
binds	binds	–	F6B1P1E2 (antibody, V domains shown, Mouse monoclonal antibody) VH: QVQLQQSGAELAKPGASVKMSCKASGYTFTSYWMHWVKQRPGQGLEWIGYINPSTDYTEYNQKFKDKATLTADKSSTTAYMQLSSLTSEDSAVYYCVRSYGNYPLMDYWGQGTSVTVSS VL: QIVLTQSPAIMSASPGEKVTLTCSASSSVSSNYLYWYHQKPGSSPKLWIYSTSNLASGVPVRFSGSGSGTSYSLTISSMEAEDAASYFCHQWSSYPPTFGSGTKLEIKR
binds	binds	–	F6BP2D4 (antibody, V domains shown, Mouse monoclonal antibody) VH: QVQLQQSGAELAKPGASVKMSCKASGYTFTSYWMHWVKQRPGQGLEWIGYINPSTDYIEYNQKFKDKATLTAGKSSSTAYMQLSSLTSEDSAVYYCARSYGNFPLMDYWGQGTSVTVSS VL: QIVLTQSPAIMSASPGEKVTLTCSASSSVSSNYLYWYQQKPGSSPKLWIYSTSNLASGVPVRFSGSGSGTSYSLTISSMEAEDAASYFCHQWSSYPPTFGSGTKLEIKR
binds	binds	binds	F6AP8E2 (antibody, V domains shown, Mouse monoclonal antibody) VH: EVQLQQSGAELVRPGALVKLSCKASGFNINDYFMHWVKQRPEQGLEWIGWIDPENGNTIYDPKFQGKASITADTSSNTAYLQLSSLTSEDTAVYYCARGGNYLRESYYYAMDYWGQGTSVTVSS VL: DIVMTQSPKSMSMSVGERVTLSCKASENVGTYVSWYQQKPDQSPKLLIYGASNRYTGVPDRFTGSGSATDFTLTISSVQAEDLADYHCGQSYSYPLTFGAGTKLELKR

Reference: US20190330354A1 (MITSUBISHI TANABE PHARMA, published 2019)
